{
  "source": "patent US8828976B2",
  "about": "“Identification and use of compounds that affect the fidelity of eukaryotic translation initiation codon selection” (priority 2010, dated 2014)",
  "tested_on": "Sui- strain sui1-1 (eIF1 D83G)",
  "experiment": "Growth assay of Sui- strain sui1-1 (his4-303) on SC-His / SC plates with compound-soaked paper strips",
  "details": "50 mM isoquinoline (FIG. 18 legend)",
  "excerpt": "Compound or solvent soaked paper strips were placed on agar plates. Yeast were spotted onto the plate as 4 rows increasingly distant from the paper strip and grown for 4 days on SC-His and 2 days on SC.\nAn additional reporter assay utilizes a yeast strain in which the AUG start codon of the HIS4 gene has been changed to AUU (his4-303) (Huang et al., Genes Dev., vol. 11, pp. 2396-2413, 1997). This strain is a histidine auxotroph and cannot grow on medium lacking histidine. However, Sui^− mutations allow initiation from the AUU start site or, more commonly, a UUG three codons downstream from it, restoring expression of His4p and thus growth on His^− medium (Castilho-Valavicius et al., Genetics, vol. 124, pp. 483-495, 1990; Huang et al., Genes Dev., vol. 11, pp. 2396-2413, 1997; Yoon et al., Mol. Cell. Biol., vol. 12, pp. 248-260, 1992). Observing an alteration of the Sui^− phenotype is a more sensitive assay than rescuing growth of a wild type strain. […] Likewise, if the compound increases the fidelity of initiation, then growth should be compromised.\nYeast with the his4-303 allele from an over-night culture were washed with water and diluted to an OD600 between 0.1-1. Strips of sterile Whatman paper were soaked with compound or solvent and placed on an agar plate of the appropriate media. The yeast culture was spotted onto the plate at various distances from the paper strips. […]",
  "note": "At least one structure is not confirmed: it was looked up by name or label, or the drawing left a doubt.",
  "data": [
    {"molecule": "c1ccc2cnccc2c1", "note": "[Cpd 3, Isoquinoline]", "values": [
      {"measurement": "enhancement of growth of sui1-1 on SC-His by analog", "result": "did not cause any enhancement of growth"}
    ]}
  ]
}
